Test results taken from PubChem BioAssay AID1487 (National Center for Advancing Translational Sciences (NCATS), 2009).
This is one part of the list. The main result of the screen is listed elsewhere. These columns were measured beside it and carry no call. The list favours compounds with an active or inconclusive main result. Words in brackets tell the shape of the fitted curve; partial curves, single points and poor fits give uncertain potencies.

Assay: qHTS Assay for Modulators of Lamin A Splicing
Conditions: HeLa LMNA splicing GFP/RFP minigene ratio, 48 h
How it was run: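 S3 HeLa cells stably expressing lamin A-EGFP splicing minigene plus DsRed2, 600 cells/well, 48 h compound exposure at 37C. Laser-scanning cytometry; analysed as GFP (500-530 nm)/RFP (575-640 nm) total intensity ratio; 0.5% DMSO vehicle.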

[1] = measured here: GFP splicing reporter channel
[2] = measured here: RFP viability control channel

| Compound | AC50 [1] | AC50 [2] |
| --- | --- | --- |
| COc1ccccc1NC(=O)C1=C(C)NC(SCC(=O)c2ccc(C)cc2)=C(C#N)C1c1ccco1 (configuration not stated) | 10 µM [rising, partial curve, poor fit] | 11.2 µM [rising, partial curve] |
| CCCCCC(=O)N1CCN(c2ccc(C(C)=O)cc2F)CC1 | – | 10 µM [rising, partial curve, poor fit] |
| O=C(c1cc([N+](=O)[O-])ccc1Cl)N1c2ccccc2Sc2ccccc21 | – | 35.5 µM [rising, single point] |
| Cn1c(C(=O)N2CCCC(C(=O)NCCCc3ccccc3)C2)cc2sccc21 (configuration not stated) | 31.6 µM [rising, single point] | 31.6 µM [rising, single point] |
| O=c1oc2ccccc2c(Cl)c1CN1CCCCC1 | 1.41 µM [falling, partial curve, poor fit] | 0.708 µM [falling, partial curve] |
| COc1cccc(/C=N/Nc2nc(Nc3ccccc3)nc(-n3nc(C)cc3C)n2)c1O | – | 14.1 µM [rising, single point] |
| CCN1C(=O)C(CC(=O)Nc2cccc(C(C)=O)c2)S/C1=N\c1ccccn1 (configuration not stated) | 10 µM [rising, single point] | 11.2 µM [rising, single point] |
| Cc1cccn2cc(COc3cccc([N+](=O)[O-])c3)nc12 | 35.5 µM [falling, single point] | 11.2 µM [falling, partial curve, poor fit] |
| O=c1ccn(-c2ccccc2)[nH]1 | 35.5 µM [rising, partial curve, poor fit] | – |
| CCOC(=O)N1CCN(C(=O)c2ccc(Cn3c(=S)[nH]c4cc5c(cc4c3=O)OCO5)cc2)CC1 | – | 14.1 µM [rising, partial curve] |
| CCOc1ccc(-n2c(-c3ccc(OC)cc3)c[n+]3c2CCCCC3)cc1 | – | 0.708 µM [rising, full curve, poor fit] |
| CCOC(=O)CNC(=O)CNC(=O)c1nn(-c2ccc(OC)c(Cl)c2)c(=O)c2ccccc12 | 35.5 µM [rising, single point] | – |
| Cc1ccc(C)c(S(=O)(=O)N2CCC(c3nc4c(nnn4Cc4ccc(F)cc4)c(=O)[nH]3)CC2)c1 | 35.5 µM [falling, single point] | 25.1 µM [falling, single point] |
| COC(=O)c1ccccc1NC(=O)/C=C/c1ccco1 | 17.8 µM [falling, single point] | – |
| Cc1ccc2c(c1)C1OCCC1C1N2C(=O)C2C(C(=O)O)C3C=CC21O3 (configuration not stated) | – | 35.5 µM [rising, partial curve] |
| Clc1ccc(OCCSc2ncccn2)c2ccccc12 | 0.251 µM [rising, full curve, poor fit] | 14.1 µM [rising, partial curve] |

| Compound | AC50 [1] | AC50 [2] |
| --- | --- | --- |
| COc1cccc(CNC(=O)c2ccc(NC(=O)N3CCCCc4ccccc43)cc2)c1 | 0.01 µM [falling, full curve, poor fit] | 0.00501 µM [falling, full curve, poor fit] |
| COc1cc2c(cc1OC)n(CC(=O)c1ccc(F)cc1)c(=O)n1nc(CCn3nc(C)cc3C)nc21 | 7.94 µM [rising, partial curve, poor fit] | 14.1 µM [rising, partial curve] |
| Cc1cc(C)c(NC(=S)NCCCSC2CCCCC2)c(C)c1 | – | 5.62 µM [falling, partial curve] |
| O=C(Nc1ccc(S(=O)(=O)NCc2cccnc2)cc1)c1ccco1 | – | 11.2 µM [rising, partial curve] |
| CCOC(=O)NC(=O)CSc1nc(-c2ccc(C)c(C)c2)cn1-c1ccccc1 | – | 31.6 µM [rising, single point] |
| O=C(Nc1ccc(N2CCOCC2)cc1)c1cc2c(s1)CCCC2 | 0.398 µM [falling, full curve, poor fit] | 0.251 µM [falling, partial curve, poor fit] |
| Cc1nn(CC(=O)NCc2ccc(OC(C)C)cc2)c(=O)c2c(C)n(-c3ccc(Cl)cc3)nc12 | 0.447 µM [rising, partial curve, poor fit] | – |
| CN(CC(=O)O/N=C(\N)c1ccc([N+](=O)[O-])cc1)S(=O)(=O)c1ccccc1 | 25.1 µM [rising, single point] | 35.5 µM [rising, single point] |
| COc1ccc(NCc2nnc(SCC(=O)Nc3ccccc3)n2C)cc1 | – | 0.447 µM [falling, full curve, poor fit] |
| COc1cccc(C2=Nc3cccc4cccc(c34)N2)c1 | – | 0.891 µM [rising, partial curve] |
| Cc1ccc(N2C(N)=C(C#N)C3(C(=O)N(C)c4ccccc43)C3=C2CC(C)(C)CC3=O)cc1Cl (configuration not stated) | – | 17.8 µM [rising, single point] |
| CS(=O)(=O)N1CCCC(C(=O)Nc2ccc3c(c2)OCCO3)C1 (configuration not stated) | 5.62 µM [rising, single point] | – |
| CC(=O)O[C@@H]1C(=O)[C@@]2(C)[C@H](O)C[C@H]3OC[C@]3(OC(C)=O)[C@@H]2[C@H](OC(=O)c2ccccc2)[C@@]2(O)C[C@H](OC(=O)[C@@H](O)[C@@H](NC(=O)c3ccccc3)c3ccccc3)C(C)=C1C2(C)C (stereo in doubt) | 0.0631 µM [falling, full curve] | 0.0631 µM [falling, full curve] |
| Cc1cccn2c(=O)cc(COc3cccc(NC(=O)c4ccccc4F)c3)nc12 | 11.2 µM [falling, partial curve] | 22.4 µM [falling, partial curve] |
| O=C(Nc1ccc(Cl)c(Cl)c1)N1CCC(c2ccccc2)C1 (configuration not stated) | 12.6 µM [rising, partial curve] | 35.5 µM [rising, partial curve] |
| Cc1ccc(-n2nc(C(=O)Nc3ccc(F)cc3Cl)c(=O)n(C)c2=O)cc1 | 0.00355 µM [falling, full curve, poor fit] | 0.00316 µM [falling, full curve, poor fit] |

Quoted at random: 2 entries already listed.

| Compound | AC50 [1] | AC50 [2] |
| --- | --- | --- |
| COc1cccc(C2=Nc3cccc4cccc(c34)N2)c1 | – | 0.891 µM [rising, partial curve] |
| CN(CC(=O)O/N=C(\N)c1ccc([N+](=O)[O-])cc1)S(=O)(=O)c1ccccc1 | 25.1 µM [rising, single point] | 35.5 µM [rising, single point] |
